Reference: US10413552B2, “Method of treating medulloblastoma” (THE HOSPITAL FOR SICK CHILDREN, priority 2015, dated 2019)
Some of these results come from one statement about several compounds together.

System: D425 cerebellar xenografts
Test: D425 intracranial medulloblastoma xenograft
Assay type: in vivo, athymic nude mice
Conditions: vs control
Procedure: Medulloblastoma intracranial xenografts were established in 5-6 week old athymic nude mice (Charles River Laboratories). Medulloblastoma cells (250,000 D425 and D458 cells) were implanted in the right cerebellum of mice. Six days after cell inoculation, animals were randomized into treatment cohorts, which included subcutaneous injections with vehicle control (10% DMSO), PL (50 mg/kg, daily for 2 weeks), ALP (30 mg/kg, daily for 2 weeks), RTL (20 mg/kg, every other day for 2 weeks) or FZ (50 mg/Kg, daily for 2 weeks).
Animals with progressive neurological signs or weight loss greater than 20% were euthanized and the brains harvested and fixed in 10% formalin.
The Kaplan-Meier estimate and a log-rank test were used to generate survival curves. Experiments were performed in triplicate and results were expressed as mean±SEM. Statistical analysis was performed using GraphPad Prism 5 Software.

O=C1Cc2c([nH]c3ccc([N+](=O)[O-])cc23)-c2ccccc2N1 [alsterpaullone, 9-nitro-7,12-dihydroindolo-[3,2-d][1]benzazepin-6(5)-one]
survival difference, log-rank test p: < 0.05
